Assay results as given in the supplement of paper PMC10849652.
The list shows a part of the results.

Amino acid sequences for entries named in this document (tags omitted). A change or cut given only in a name is not applied to a line headed by its entry.
UniProt P43897: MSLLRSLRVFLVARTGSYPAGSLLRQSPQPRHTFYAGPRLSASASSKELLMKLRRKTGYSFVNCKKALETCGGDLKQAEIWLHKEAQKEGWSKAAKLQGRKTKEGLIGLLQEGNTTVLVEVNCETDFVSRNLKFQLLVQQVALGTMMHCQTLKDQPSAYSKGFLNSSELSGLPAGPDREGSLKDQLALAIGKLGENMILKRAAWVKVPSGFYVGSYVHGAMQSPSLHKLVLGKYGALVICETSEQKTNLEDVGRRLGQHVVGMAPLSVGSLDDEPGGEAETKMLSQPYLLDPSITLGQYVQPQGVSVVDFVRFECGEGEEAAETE
UniProt Q6IBS0: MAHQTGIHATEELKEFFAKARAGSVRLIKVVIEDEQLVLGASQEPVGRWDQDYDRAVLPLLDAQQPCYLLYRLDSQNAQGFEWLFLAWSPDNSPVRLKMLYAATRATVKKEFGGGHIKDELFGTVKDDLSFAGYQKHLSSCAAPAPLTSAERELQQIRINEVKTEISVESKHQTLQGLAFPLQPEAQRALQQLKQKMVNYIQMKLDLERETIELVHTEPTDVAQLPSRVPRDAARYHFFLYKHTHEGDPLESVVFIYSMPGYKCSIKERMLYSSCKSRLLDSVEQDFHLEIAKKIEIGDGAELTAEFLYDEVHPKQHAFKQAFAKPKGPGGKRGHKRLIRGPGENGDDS
UniProt Q9NUQ3: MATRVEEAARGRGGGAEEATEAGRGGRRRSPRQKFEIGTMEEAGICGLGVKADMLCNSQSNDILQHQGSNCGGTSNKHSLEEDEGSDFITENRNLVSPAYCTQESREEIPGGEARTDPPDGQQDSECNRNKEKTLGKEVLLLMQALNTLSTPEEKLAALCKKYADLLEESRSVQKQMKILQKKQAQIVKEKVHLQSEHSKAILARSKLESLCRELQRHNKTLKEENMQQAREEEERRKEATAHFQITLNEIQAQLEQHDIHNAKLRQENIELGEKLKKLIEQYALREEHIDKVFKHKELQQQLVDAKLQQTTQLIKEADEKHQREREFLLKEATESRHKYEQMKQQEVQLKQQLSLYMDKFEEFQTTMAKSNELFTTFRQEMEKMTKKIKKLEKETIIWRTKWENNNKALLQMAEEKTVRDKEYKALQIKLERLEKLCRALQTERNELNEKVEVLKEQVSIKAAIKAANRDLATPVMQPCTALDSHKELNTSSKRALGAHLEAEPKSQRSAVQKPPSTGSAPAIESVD
UniProt Q5BVD1: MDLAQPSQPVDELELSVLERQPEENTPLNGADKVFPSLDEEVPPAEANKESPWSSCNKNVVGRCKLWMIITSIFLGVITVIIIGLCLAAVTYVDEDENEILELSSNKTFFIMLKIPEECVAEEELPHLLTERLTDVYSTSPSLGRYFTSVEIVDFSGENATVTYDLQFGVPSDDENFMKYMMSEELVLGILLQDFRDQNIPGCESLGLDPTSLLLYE
UniProt Q969E8: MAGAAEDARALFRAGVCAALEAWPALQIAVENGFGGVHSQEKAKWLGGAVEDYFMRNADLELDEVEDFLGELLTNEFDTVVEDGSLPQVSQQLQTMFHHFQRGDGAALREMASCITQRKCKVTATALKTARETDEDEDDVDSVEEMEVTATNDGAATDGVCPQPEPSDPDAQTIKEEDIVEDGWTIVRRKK
UniProt Q8NG11: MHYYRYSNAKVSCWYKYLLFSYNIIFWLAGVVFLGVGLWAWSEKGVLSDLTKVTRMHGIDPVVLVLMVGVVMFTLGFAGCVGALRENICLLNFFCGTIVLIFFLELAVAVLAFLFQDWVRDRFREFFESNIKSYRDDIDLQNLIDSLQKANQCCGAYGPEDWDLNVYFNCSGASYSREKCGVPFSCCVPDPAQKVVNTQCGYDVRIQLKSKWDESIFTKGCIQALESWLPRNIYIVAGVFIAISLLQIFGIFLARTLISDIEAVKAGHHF
UniProt Q9Y385: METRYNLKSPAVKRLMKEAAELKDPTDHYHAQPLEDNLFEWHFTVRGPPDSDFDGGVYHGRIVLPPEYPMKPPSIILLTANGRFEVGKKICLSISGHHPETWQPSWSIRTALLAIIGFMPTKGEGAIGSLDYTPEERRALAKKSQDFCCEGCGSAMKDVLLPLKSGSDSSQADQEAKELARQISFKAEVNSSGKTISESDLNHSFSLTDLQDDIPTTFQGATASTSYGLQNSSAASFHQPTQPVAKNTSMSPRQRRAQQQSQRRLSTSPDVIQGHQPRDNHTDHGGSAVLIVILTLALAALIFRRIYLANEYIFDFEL
UniProt P62256: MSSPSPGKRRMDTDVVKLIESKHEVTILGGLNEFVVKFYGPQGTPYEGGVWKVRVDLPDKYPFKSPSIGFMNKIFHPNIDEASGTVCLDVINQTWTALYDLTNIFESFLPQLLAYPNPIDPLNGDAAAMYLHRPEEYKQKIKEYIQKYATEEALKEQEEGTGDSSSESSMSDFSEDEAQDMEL
UniProt Q9BQE3, whole entry, looked up: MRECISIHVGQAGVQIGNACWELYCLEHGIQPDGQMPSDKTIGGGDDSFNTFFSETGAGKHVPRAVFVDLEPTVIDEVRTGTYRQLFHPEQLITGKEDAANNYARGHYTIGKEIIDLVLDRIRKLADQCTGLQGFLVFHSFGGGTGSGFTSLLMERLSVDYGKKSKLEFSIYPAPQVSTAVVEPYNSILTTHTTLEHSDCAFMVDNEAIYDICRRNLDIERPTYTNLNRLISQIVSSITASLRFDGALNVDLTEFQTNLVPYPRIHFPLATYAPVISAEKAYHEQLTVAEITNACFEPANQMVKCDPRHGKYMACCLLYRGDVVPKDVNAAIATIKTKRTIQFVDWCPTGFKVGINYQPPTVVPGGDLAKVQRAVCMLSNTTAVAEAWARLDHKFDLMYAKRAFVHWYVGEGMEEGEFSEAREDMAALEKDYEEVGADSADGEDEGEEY
UniProt P63279, whole entry, looked up: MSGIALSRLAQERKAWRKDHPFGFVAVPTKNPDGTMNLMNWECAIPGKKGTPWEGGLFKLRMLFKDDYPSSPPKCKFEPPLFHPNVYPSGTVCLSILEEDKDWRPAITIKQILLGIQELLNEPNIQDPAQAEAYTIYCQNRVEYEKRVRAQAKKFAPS
UniProt Q14157: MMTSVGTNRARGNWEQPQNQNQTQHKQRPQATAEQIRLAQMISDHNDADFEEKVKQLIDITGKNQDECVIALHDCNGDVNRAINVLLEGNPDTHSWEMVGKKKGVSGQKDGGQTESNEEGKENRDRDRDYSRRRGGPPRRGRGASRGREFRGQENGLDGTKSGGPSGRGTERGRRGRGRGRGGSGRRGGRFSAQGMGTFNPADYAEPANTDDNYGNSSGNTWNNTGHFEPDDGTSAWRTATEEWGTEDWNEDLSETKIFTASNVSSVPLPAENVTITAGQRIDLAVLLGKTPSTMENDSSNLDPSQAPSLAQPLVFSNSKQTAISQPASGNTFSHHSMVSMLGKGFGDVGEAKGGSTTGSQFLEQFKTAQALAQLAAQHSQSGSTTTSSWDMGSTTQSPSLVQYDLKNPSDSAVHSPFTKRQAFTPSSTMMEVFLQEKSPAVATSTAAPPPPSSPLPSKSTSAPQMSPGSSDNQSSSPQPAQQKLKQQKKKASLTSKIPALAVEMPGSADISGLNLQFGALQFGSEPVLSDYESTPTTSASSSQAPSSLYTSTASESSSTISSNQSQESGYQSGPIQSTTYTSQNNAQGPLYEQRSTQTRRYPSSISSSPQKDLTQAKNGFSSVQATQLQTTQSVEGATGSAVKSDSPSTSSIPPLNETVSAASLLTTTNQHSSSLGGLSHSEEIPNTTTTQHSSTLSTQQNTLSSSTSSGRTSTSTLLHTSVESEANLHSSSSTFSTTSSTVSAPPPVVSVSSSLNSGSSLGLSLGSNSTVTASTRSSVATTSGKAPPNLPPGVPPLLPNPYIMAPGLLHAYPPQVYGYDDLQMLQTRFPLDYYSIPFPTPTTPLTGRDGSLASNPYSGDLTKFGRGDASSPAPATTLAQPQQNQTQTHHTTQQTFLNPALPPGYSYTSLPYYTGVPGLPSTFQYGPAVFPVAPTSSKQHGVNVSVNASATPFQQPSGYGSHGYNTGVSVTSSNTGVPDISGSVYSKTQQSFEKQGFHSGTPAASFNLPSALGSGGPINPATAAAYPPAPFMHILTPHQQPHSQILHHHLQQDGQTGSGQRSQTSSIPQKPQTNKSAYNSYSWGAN
UniProt Q9BTX7: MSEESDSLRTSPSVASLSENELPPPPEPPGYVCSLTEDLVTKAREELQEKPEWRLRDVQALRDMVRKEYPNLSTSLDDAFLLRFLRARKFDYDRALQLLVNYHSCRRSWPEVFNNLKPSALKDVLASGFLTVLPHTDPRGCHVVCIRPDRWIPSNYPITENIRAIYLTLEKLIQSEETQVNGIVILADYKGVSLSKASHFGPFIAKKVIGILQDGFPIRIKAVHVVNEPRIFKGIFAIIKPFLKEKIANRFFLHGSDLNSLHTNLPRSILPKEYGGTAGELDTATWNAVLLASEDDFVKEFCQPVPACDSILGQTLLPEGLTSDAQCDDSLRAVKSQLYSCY
UniProt Q16881, whole entry, looked up: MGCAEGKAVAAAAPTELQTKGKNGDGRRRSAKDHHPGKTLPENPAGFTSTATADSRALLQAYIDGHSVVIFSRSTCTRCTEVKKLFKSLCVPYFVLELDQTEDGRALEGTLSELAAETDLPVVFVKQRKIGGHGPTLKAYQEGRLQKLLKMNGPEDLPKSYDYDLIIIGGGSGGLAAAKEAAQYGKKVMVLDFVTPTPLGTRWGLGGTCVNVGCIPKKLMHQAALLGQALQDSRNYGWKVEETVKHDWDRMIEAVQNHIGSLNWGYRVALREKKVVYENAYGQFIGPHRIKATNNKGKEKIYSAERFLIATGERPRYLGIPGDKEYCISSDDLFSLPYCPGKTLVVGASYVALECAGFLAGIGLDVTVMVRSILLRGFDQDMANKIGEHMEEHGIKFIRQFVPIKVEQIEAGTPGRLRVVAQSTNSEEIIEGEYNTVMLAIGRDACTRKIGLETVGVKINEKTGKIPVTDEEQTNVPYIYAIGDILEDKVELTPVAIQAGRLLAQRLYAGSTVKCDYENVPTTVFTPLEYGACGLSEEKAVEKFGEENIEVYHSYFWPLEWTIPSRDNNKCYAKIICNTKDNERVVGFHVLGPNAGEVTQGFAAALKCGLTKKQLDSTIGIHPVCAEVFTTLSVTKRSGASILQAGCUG
UniProt O43396: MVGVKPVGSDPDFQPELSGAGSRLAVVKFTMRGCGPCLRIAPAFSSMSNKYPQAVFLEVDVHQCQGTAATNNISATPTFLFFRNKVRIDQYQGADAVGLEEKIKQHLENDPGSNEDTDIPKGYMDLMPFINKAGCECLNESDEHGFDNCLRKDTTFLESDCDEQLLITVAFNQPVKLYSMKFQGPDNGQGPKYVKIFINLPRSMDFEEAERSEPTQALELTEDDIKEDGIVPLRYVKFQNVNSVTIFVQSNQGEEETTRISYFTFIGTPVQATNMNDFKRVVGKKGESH
UniProt Q3KQV9: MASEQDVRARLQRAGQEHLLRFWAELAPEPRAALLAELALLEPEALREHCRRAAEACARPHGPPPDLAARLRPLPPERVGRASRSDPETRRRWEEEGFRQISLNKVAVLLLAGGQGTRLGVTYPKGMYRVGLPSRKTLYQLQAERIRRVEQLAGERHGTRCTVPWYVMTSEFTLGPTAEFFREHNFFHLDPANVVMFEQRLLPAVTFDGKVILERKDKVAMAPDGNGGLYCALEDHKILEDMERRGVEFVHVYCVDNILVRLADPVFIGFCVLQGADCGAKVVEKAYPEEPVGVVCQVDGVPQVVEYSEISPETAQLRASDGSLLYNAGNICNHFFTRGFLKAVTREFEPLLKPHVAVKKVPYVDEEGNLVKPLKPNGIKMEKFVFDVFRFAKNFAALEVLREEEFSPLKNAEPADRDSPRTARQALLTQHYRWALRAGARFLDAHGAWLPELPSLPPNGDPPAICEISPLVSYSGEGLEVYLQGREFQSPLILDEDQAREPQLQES
UniProt Q9NZ09: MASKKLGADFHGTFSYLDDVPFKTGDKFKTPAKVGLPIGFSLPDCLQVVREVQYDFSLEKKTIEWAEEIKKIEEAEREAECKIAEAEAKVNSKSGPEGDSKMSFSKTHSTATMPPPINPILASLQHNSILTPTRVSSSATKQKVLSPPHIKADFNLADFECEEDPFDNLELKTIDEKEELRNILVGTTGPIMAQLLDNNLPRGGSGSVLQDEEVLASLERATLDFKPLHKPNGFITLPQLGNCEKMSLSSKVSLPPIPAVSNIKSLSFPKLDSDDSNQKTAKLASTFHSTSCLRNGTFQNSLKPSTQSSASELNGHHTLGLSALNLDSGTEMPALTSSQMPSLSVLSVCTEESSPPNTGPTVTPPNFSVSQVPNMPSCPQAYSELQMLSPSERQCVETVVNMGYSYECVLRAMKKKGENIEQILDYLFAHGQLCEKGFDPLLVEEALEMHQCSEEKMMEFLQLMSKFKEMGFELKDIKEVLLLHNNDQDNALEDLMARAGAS

compound: CC1=C(C=C(C=C1)NC(=O)C2=CC(=CC=C2)N(C)C)NC(=O)C3=CC=C(C=C3)O; assay: log2 fold change, soluble protein after heating vs DMSO (PISA); higher = thermal stabilisation; K562 cells, 10 uM, 30 min; active = over 0.2 and 3.5 SD of the protein, either way, in both replicates (recomputed)
Summary of the method: (§1)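 Thermal stability values are relative to control samples and come from duplicates. They are expressed as log2 fold changes. For measurement, K562 cells (2×10^6 cells/mL) received 10 μM compound for 30 min, and aliquots were heated for 3 min over 48°C-58°C, pooled, and extracted at 4°C in PBS with 0.5% NP-40. Soluble protein, the supernatant after 21,000xg for 90 min, was quantified by TMTpro 16plex LC-MS/MS with equalised channel sums.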

Target | log2 fold change
TSFM (UniProt P43897) | inactive: -0.167
TWF2 (UniProt Q6IBS0) | inactive: -0.036
TXLNG (UniProt Q9NUQ3) | inactive: 0.001
TTMP isoform 3 (UniProt Q5BVD1) | inactive: -0.02
TTN isoform 12 (UniProt Q8WZ42) | inactive: -0.011
U2AF2 (UniProt P26368) | inactive: 0.005
TSR2 (UniProt Q969E8) | inactive: 0.016
TUFM (UniProt P49411) | inactive: -0.066

compound: CC1=CC=C(C=C1)SC2=C3C=C(SC3=CN=C2)C(=O)N; assay: as above
Summary of the method: as §1

Target | log2 fold change
TSPAN14 (UniProt Q8NG11) | inactive: 0.037
UBE2J1 (UniProt Q9Y385) | inactive: 0.107
UBE2H (UniProt P62256) | inactive: 0.01
TUBA1C (UniProt Q9BQE3) | inactive: 0.016
UBE2I (UniProt P63279) | inactive: -0.004
UBAP2L isoform 1 (UniProt Q14157) | inactive: -0.016
TTPAL (UniProt Q9BTX7) | inactive: 0.011
TXNRD1 (UniProt Q16881) | inactive: 0.021
TXNL1 (UniProt O43396) | inactive: 0.007
TTC27 (UniProt Q6P3X3) | inactive: 0.05
TTI2 (UniProt Q6NXR4) | inactive: 0.024
UAP1L1 (UniProt Q3KQV9) | inactive: -0.008
TXNIP (UniProt Q9H3M7) | inactive: -0.115
UBAP1 isoform 4 (UniProt Q9NZ09) | inactive: 0.135
UBAP2L isoform 5 (UniProt Q14157) | inactive: 0.017

Exported with tabs: part of the list above.
Target	log2 fold change
UBE2J1 (UniProt Q9Y385)	inactive: 0.107
UBE2H (UniProt P62256)	inactive: 0.01
